4 molecules from paper PMC10483240 can be followed below.

Protein sequences, listed by entry. Tags and fused reporters are not part of them. Lines headed by an entry give the natural chain unless they say otherwise; changes in a name come on top.
UniProt Q9WUU7: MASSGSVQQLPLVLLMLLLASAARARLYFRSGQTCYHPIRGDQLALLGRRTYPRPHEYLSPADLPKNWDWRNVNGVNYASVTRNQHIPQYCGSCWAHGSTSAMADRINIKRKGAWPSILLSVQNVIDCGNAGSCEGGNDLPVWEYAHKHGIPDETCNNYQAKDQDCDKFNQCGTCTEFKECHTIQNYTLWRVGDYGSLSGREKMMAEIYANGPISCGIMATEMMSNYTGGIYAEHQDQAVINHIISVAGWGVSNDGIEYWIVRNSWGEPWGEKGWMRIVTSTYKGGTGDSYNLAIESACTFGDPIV
UniProt P14873: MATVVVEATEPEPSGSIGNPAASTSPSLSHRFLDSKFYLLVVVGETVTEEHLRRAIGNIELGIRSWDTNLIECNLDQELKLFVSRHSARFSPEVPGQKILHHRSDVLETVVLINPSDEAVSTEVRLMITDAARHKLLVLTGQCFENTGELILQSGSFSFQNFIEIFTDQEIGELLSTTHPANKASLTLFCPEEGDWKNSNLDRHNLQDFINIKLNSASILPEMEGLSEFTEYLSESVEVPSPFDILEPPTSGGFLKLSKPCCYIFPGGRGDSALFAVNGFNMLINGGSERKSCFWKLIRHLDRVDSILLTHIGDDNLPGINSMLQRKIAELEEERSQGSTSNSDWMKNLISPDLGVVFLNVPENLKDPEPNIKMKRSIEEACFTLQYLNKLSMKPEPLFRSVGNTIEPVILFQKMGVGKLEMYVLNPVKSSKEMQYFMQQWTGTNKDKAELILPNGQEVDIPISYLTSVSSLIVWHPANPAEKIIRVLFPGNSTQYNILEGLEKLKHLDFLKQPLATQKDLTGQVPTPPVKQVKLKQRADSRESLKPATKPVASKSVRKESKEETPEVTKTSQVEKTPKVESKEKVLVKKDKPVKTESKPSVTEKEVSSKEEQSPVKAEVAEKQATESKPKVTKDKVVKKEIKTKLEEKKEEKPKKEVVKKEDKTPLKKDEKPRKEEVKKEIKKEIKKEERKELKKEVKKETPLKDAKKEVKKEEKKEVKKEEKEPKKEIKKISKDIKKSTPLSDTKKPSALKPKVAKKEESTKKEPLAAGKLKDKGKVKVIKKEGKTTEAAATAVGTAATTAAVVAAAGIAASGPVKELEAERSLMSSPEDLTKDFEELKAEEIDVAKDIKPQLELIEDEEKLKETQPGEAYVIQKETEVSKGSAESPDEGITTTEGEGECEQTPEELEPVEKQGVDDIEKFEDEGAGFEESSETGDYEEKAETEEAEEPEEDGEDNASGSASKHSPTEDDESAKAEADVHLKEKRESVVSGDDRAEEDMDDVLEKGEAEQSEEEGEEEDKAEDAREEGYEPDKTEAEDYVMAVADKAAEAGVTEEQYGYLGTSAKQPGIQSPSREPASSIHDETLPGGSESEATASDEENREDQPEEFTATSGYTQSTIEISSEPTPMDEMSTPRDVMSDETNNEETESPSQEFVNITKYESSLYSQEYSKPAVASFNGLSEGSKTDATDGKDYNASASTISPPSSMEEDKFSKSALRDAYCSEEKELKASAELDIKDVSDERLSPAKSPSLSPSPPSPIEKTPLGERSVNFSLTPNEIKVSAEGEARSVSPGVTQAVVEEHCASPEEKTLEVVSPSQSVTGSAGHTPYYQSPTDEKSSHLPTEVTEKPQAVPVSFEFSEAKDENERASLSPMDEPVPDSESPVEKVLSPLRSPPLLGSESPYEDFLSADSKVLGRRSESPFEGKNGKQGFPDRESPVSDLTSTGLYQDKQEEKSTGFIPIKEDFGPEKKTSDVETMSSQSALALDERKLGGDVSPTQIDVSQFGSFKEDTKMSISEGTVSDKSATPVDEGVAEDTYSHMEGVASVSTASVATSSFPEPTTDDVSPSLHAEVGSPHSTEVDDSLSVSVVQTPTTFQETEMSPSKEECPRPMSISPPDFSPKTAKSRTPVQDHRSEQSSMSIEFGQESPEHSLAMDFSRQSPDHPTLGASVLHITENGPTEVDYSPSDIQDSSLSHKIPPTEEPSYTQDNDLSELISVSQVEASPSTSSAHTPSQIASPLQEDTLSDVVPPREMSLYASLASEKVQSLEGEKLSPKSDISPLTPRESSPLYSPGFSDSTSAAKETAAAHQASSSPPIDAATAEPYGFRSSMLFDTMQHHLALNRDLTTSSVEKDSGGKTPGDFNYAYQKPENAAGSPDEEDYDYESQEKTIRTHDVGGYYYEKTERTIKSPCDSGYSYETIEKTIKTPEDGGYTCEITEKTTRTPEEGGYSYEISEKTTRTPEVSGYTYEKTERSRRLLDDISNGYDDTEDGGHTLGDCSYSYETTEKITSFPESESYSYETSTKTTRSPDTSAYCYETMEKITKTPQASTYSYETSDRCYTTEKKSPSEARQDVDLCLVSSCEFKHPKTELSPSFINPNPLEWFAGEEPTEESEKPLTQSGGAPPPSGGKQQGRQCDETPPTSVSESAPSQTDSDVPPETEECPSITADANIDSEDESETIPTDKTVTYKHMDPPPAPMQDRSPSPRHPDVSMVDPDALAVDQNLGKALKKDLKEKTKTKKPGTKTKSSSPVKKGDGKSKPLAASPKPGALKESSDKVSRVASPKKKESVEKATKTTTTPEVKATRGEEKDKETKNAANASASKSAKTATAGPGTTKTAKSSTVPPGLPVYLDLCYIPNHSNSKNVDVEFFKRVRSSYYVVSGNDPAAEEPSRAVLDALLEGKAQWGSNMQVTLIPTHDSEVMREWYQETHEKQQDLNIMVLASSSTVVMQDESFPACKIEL

Like-named read-outs stand apart in the source and are kept apart here. Results are given in words; binding and its absence hold for the method and conditions named. In cells and extracts the contact can be indirect. Here binding means that the protein was enriched with, or labelled near, the bait; the list need not be complete.

In test [1] the target is T1, insulin inhibitory receptor (inceptor) (mouse (endogenous in testis)) (UniProt A2AFS3).
T1 sequence: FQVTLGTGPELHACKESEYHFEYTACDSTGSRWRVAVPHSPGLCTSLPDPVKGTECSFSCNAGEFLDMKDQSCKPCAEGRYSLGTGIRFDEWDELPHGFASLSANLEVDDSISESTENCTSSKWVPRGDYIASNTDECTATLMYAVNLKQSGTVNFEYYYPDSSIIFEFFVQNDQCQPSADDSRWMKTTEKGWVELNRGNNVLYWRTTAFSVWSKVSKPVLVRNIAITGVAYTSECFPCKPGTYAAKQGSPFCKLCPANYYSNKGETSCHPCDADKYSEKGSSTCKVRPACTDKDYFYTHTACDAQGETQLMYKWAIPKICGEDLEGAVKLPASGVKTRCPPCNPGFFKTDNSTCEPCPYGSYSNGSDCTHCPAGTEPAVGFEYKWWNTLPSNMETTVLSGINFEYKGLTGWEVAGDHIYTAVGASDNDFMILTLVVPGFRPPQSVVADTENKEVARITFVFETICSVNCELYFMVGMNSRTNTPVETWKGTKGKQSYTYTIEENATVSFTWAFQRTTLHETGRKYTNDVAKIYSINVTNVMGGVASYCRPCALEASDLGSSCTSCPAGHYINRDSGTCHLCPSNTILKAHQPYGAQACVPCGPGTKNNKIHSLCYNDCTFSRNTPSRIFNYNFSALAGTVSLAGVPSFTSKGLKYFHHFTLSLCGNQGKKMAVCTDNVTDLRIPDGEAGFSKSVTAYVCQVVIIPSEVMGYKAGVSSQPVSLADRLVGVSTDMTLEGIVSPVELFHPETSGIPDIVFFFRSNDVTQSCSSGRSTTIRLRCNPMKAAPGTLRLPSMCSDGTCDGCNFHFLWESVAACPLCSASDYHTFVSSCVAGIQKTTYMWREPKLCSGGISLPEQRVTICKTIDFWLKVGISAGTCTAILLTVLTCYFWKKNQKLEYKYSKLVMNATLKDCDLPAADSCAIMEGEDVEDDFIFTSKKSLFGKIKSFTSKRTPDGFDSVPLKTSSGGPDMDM
Nature of the test: affinity purification with mass spectrometry; anti-inceptor antibody 2G6 (isotype control 11A7) on protein G SureBeads; mouse testis homogenate in 125 mM KCl, 10 mM EDTA, 20 mM HEPES pH 7.2, supernatant with 1% NP-40 alternative; eluted at 60°C.

Test [2] concerns the target T1, insulin inhibitory receptor (inceptor) (mouse (endogenous in testis)). The test is described as above. The source holds these as a separate data set.

Take “cathepsin Z (from UniProt Q9WUU7) (enzyme)”: the binding result in test [1] is “binds”. As for “microtubule-associated protein 1B (MAP1B) (from UniProt P14873 1-2464)”, in test [1], the binding result is “binds”.

B1: adaptor protein 3 μ2 subunit (AP3M2) (protein, UniProt Q8R2R9 1-418)
chain: MIHSLFLINSSGDIFLEKHWKSVVSRSVCDYFFEAQERATEAENVPPVIPTPHHYLLSVYRHKIFFVAVIQTEVPPLFVIEFLHRVVDTFQDYFGVCSEPVIKDNVVVVYEVLEEMLDNGFPLATESNILKELIKPPTILRTVVNTITGSTNVGDQLPTGQLSVVPWRRTGVKYTNNEAYFDVVEEIDAIIDKSGSTVTAEIQGVIDACVKLTGMPDLTLSFMNPRLLDDVSFHPCVRFKRWESERILSFIPPDGNFRLLAYHVSAQNLVAIPVYVKHSISFRDSSSLGRFEITVGPKQTMGKTIEGVIVTSQMPKGVLNMSLTPSQGTHTFDPVTKMLSWDVGKINPQKLPSLKGTMGLQVGASKPDENPTINLQFKIQQLAISGLKVNRLDMYGEKYKPFKGIKYMTKAGKFQVRT
For B1, the binding entry in test [2] is recorded as “binds”.

B2: Lysozyme-like 4 (LYZL4) (protein, UniProt Q9D925 20-145)
chain: SILGRCTVAKMLYDGGLNYFEGYSLENWVCLAYFESKFNPSAVYEDPQDGSTGFGLFQIRDNEWCGHGKNLCSVSCTALLNPNLKDTIQCAKKIVKGKHGMGAWPIWSKNCQLSDVLDRWLDGCDL
For the molecule B2, the binding entry in test [2] was “binds”.
